System: SGC-7901 cells
Experiment: Intracellular ROS measurement with DCFH-DA
Type: cell-based, human
Conditions: 1 (4.0 M), 2 (15.0 M), 3 (15.0 M) as printed; no DCFH-DA
Description: 2,7-Dichloro-dihydrofluorescein diacetate (DCFH-DA) was used as a fluorescence probe to investigate the changes in intracellular ROS levels. SGC-7901 cells were placed in a 12-well plate at a density of 1.5 × 10^5 per well. After 24 h, the medium in the wells was replaced with a medium containing the corresponding concentration of 1–3, and the cells were incubated for 24 h. Finally, the cell pellets were suspended in PBS and imaged under the ImageXpress Micro XLS system (MD company, US). The DCF fluorescence intensity was calculated by flow cytometry.

Compound	Fluorescence intensity of cell + complex without dyes
F[P-](F)(F)(F)(F)F.Nc1c([N+](=O)[O-])c2cccnc2c2ncccc12.[Ir+3].[c-]1ccccc1-c1ccccn1.[c-]1ccccc1-c1ccccn1 [Complex 2, [Ir(Hppy)2(NAP)]PF6]	507
F[P-](F)(F)(F)(F)F.O=[N+]([O-])c1cc2ccc[n+]3c2c2c1ccc[n+]2[Ir-5]312([c]3ccccc3-c3cccc[n+]31)[c]1ccccc1-c1cccc[n+]12 [Complex 1, [Ir(Hppy)2(NP)]PF6]	780
F[P-](F)(F)(F)(F)F.Nc1c(N)c2cccnc2c2ncccc12.[Ir+3].[c-]1ccccc1-c1ccccn1.[c-]1ccccc1-c1ccccn1 [Complex 3, [Ir(Hppy)2(DAP)]PF6]	1120
